Measured values published in patent US20090076015A1, “Tricyclic Spiro Compound Comprising Acyl Group Bound to Nitrogen Atom in the Ring” (priority 2005, published 2009).
At least one structure is not confirmed: it was looked up by name or label, or the drawing left a doubt.

Test system: human plasma
Assay: Measurement of intrinsic coagulation time (APTT) in vitro
Type: biochemical
Settings: APTT reagent, 37° C., calcium chloride 25 mM
Description: Activated partial thromboplastin time (APTT) is measured in the presence of the test compounds of the present invention diluted at various concentrations. To be more specific, each of the test compounds diluted with DMSO at various concentrations is mixed with human plasma and APTT reagent. The mixture is incubated at 37° C. for 2 minutes; calcium chloride (25 mM) is added to the mixture; and the coagulation time is thereafter measured. It should be noted that the anticoagulant activity of the test compound is described in terms of the concentration required to double the coagulation time for the case where no test compound is added.

Row | SMILES | Concentration when APTT was doubled [µM]
1 | CCC(=O)N1CCC2(CC1)CN1C(=O)CN(S(=O)(=O)c3cc4cc(Cl)ccc4[nH]3)CC1(COC)N2C (single isomer, unassigned; (-)) [Example 2, (−)-7-[(5-chloro-1H-indol-2-yl)sulfonyl]tetrahydro-8a-(methoxymethyl)-1-methyl-1′-propanoyl-spiro[imidazo[1,2-a]pyrazine-2(3H),4′-piperidin]-5(1H)-one] | 0.59
2 | CC(=O)N1CCC2(CC1)CN1C(=O)CN(S(=O)(=O)c3cc4cc(Cl)ccc4[nH]3)CC1(CO)O2 (single isomer, unassigned; (-)) [Example 50, (−)-1′-acetyl-7-[(5-chloro-1H-indol-2-yl)sulfonyl]tetrahydro-8a-(hydroxymethyl)-spiro[5H-oxazolo[3,2-a]pyrazine-2(3H),4′-piperidin]-5-one] | 0.36
